For at least one entry, the source does not settle the construct or the ends of the probe. At least one verdict was read from the data and is not stated in words by the source.
What was measured:
Test in all cases: BLI
Conditions in all cases: 2 mM ATP, 2 mM Mg2+, filament then disrupted by RECQ5/BRC3; BLI: 25 mM Tris-HCl pH 7.5, 50 mM KCl, 2 mM MgCl2, 200 ug/mL BSA, 0.05% Tween 20, 2 mM ATP, room temperature; recombinant protein; label: 5' biotin; single-stranded DNA
[1] = target: RAD51-I287T (human) (UniProt Q06609)
[2] = target: RAD51-K133A (human) (UniProt Q06609)
[3] = target: RAD51-K133R (human) (UniProt Q06609)

The chains behind the UniProt entries cited, without tags or fusion partners.
UniProt Q06609, whole entry I287T: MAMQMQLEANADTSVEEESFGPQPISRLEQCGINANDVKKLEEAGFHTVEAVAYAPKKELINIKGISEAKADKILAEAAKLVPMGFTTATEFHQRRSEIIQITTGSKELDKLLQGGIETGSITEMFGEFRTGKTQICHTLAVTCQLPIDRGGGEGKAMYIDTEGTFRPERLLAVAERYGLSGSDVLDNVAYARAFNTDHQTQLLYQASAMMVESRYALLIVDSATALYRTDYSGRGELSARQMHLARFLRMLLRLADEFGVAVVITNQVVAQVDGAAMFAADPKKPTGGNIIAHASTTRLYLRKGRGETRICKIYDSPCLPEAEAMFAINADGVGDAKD
UniProt Q06609, whole entry K133A: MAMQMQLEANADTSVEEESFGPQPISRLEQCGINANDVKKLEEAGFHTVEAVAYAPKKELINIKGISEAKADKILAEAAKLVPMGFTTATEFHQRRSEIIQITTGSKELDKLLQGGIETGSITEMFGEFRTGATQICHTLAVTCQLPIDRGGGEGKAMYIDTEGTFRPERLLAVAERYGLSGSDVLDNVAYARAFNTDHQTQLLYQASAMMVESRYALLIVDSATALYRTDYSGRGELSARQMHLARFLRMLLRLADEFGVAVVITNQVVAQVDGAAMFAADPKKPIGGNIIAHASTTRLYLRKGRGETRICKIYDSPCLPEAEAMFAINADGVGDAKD
UniProt Q06609, whole entry K133R: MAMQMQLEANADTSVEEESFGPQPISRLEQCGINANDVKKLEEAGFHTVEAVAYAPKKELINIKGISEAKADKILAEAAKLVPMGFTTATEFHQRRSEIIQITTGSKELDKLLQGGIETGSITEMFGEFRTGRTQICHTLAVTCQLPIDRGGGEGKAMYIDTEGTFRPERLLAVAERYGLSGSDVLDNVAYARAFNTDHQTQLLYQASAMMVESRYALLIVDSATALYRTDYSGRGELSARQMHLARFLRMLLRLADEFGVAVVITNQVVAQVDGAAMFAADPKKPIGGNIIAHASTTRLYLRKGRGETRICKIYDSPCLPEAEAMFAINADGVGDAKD

Measured: binding result

TTTTTTTTTTTTTTTTTTTTTTTTTTTTTTTTTTTTTTTTTTT [dT43-mer]
binds: all assays above
